58 compounds from PubChem BioAssay AID2685 (National Center for Advancing Translational Sciences (NCATS), 2010) can be followed below.

The nature of the test: qHTS Assay for Lipid Storage Modulators in Drosophila S3 Cells.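 On cell number change: cells counted by Cell Tracker Red CMTPX staining in the red channel.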 The settings on record: BODIPY lipid droplet fluorescence, 18-24 h; for cell number change: measured here: cell count max response, cells fed with added oleic acid. In outline:
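Laser-scanning cytometry quantifies lipid droplet accumulation (500–530 nm total intensity; droplet/cell object ratio) in oleic acid-fed (400 uM added) Drosophila S3 cells treated with a concentration series. 20 uM Triacsin C defined 100% inhibition.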

The mark [1] stands for this setting: measured here: lipid fluorescence (Fed channel) AC50, cells fed with added oleic acid.
Setting [2] is: measured here: cell number channel AC50, cells fed with added oleic acid.

By AC50 is commonly meant the midpoint of the concentration-response curve, whichever way the signal moves. Lower therefore signals greater potency.

The structures appear in SMILES notation. The list shows a part of the results. Shown are side measurements of this screen, not its main read-out; they come without a call. The list favours compounds with an active or inconclusive main result. The note in brackets gives the kind of curve behind each potency; many fits are weak.

For the compound `CN(C)S(=O)(=O)c1ccc(C(=O)Nc2cccc(C(=O)O)c2)cc1`, the cell number change worked out at 0.0997%. For the same compound, the AC50 under setting [1] is 0.411 µM [rising, single point].

With `CCCCOc1ccc(C(=O)NCC(=O)OCC(=O)N2CCN(S(=O)(=O)c3ccc(C)cc3C)CC2)cc1`, the cell number change was -42.9%. For the same compound, the concentration at half-maximal activity (AC50) under setting [2] was 0.0116 µM [falling, full curve, poor fit].

Regarding `CCOC(=O)c1sc(NC(=O)/C=C/c2ccc(F)cc2)nc1C`, the cell number change is -46%. For the same compound, the AC50 under setting [2] is 23.1 µM [falling, single point].

Turning to `COc1cccc(/C(=N/O)C2CC2c2ccc(Cl)cc2)c1` (stereo unspecified), the cell number change was -6.39%. In addition, the AC50 under setting [1] is 6.51 µM [rising, partial curve].

`CCN(CC(=O)Nc1cc(Cl)ccc1C)C(=O)c1ccc2c(c1)NC(=O)C(C)S2` (stereo unspecified): the cell number change was -10.1%.

Take `CCc1ccc(C(=O)NNc2ccc(F)cc2F)cc1`: the cell number change came to 14.7%. The half-maximal activity concentration (AC50) under setting [1] is 11.6 µM [rising, partial curve, poor fit].

With `CCOC(=O)c1sc2cccc(Cl)c2c1N`, the cell number change was -33.4%. Moreover, under setting [2], the AC50 was 11.6 µM [falling, partial curve].

On to `O=S(=O)(NC1CCCCC1N1CCN(c2ccc(F)cc2)CC1)c1ccccc1` (stereo unspecified), for which the cell number change worked out at 25.7%. Besides, the AC50 under setting [1] is 29.1 µM [rising, partial curve, poor fit].

With `O=C(CN(Cc1cccs1)C(=O)CCC(=O)Nc1nccs1)NCc1ccccc1`, the cell number change amounted to 71.4%. Besides, the AC50 under setting [2] is 29.1 µM [rising, single point]. In addition, the AC50 under setting [1] was 29.1 µM [rising, single point].

`Cc1ccc(CNC(=O)Nc2ccc(Cl)cc2)cc1`: the cell number change came out at 22.6%.

For the compound `CCCCC1(C)Nc2ccccc2-c2nc3ccccc3n21` (stereo unspecified), the cell number change is -36.6%. For the same compound, the half-maximal activity concentration (AC50) under setting [2] is 29.1 µM [falling, single point].

Consider `CCn1c(SCC(=O)O)nnc1C1CCCCC1`, for which the cell number change was -17.1%. The AC50 under setting [1] is 0.82 µM [falling, partial curve].

`Cc1ccc(NS(=O)(=O)c2ccc(N/N=C/c3ccncc3)c([N+](=O)[O-])c2)c(C)c1`: the cell number change came to 6.6%. For the same compound, the AC50 under setting [2] was 0.651 µM [rising, partial curve]. Further, the AC50 under setting [1] is 1.46 µM [rising, partial curve].

For the compound `COC(=O)C(C)Sc1nc2c(cnn2-c2ccccc2)c(=O)[nH]1` (stereo unspecified), the AC50 under setting [1] was 1.03 µM [rising, single point].

As for `COc1cccc(C(=S)N2CCOCC2)c1OS(=O)(=O)c1ccc(Cl)cc1`, the cell number change was -52.3%. The AC50 under setting [2] is 2.31 µM [falling, full curve]. Moreover, under setting [1], the AC50 was 23.1 µM [falling, partial curve, poor fit].

Consider `COc1ccc(-n2c(-c3ccc(Cl)cc3)c[n+]3c2CCCCC3)cc1`, for which the cell number change was -30.4%. Also, the concentration at half-maximal activity (AC50) under setting [2] is 29.1 µM [falling, single point]. In addition, the AC50 under setting [1] was 29.1 µM [falling, single point].

In the case of `COc1ccc(C)cc1NC(=O)C1CCCN(S(=O)(=O)c2cccs2)C1` (stereo unspecified), the cell number change was -1.59%.

Take `CCC(C)(C)C1CCc2[nH]nc(C(=O)NCc3ccc(Cl)cc3)c2C1` (stereo unspecified): the cell number change was -72.9%. Moreover, the AC50 under setting [2] was 20.6 µM [falling, single point]. Moreover, the AC50 under setting [1] was 29.1 µM [falling, single point].

Consider `Cc1ccc(C(=O)NC(=S)N2CCN(C(=O)OC(C)(C)C)CC2)cc1Br`, for which the cell number change is -16.6%. Moreover, the AC50 under setting [2] is 0.13 µM [falling, full curve, poor fit]. In addition, the AC50 under setting [1] is 0.291 µM [falling, single point].

In the case of `O=C(COC(=O)C1CC2C=CC1C2)NCc1ccco1` (stereo unspecified), the cell number change is -12.6%.

In the case of `Cc1cccc(C(=O)OCC(=O)NCc2cccs2)c1`, the cell number change came out at 55.1%. Further, under setting [2], the AC50 is 29.1 µM [rising, single point].

As to `O=C(OCc1ccccc1)C1=NNC2C(=O)N(Cc3ccccc3)C(=O)C12` (stereo unspecified), the cell number change amounted to 58.3%. In addition, the AC50 under setting [2] is 18.4 µM [rising, single point].

With `COC(=O)CN(C)C(=O)c1ccccc1OC1CCN(S(C)(=O)=O)CC1`, the cell number change is -1.37%. For the same compound, the AC50 under setting [1] was 14.6 µM [rising, partial curve].

As to `CN(CC(=O)Nc1cccc(F)c1)C(=O)CNC(=O)Cc1cccc2ccccc12`, the AC50 under setting [2] is 0.00461 µM [rising, full curve, poor fit] and the AC50 under setting [1] was 29.1 µM [falling, single point].

Consider `CN(C)S(=O)(=O)c1ccc(Cl)c(NC(=O)CSc2nc3c(cc2C#N)C(=O)CCC3)c1`, for which the cell number change is -1.99%.

For `COC(=O)c1ccc(CNC(=O)c2ccc(S(=O)(=O)N3CCCC(C)C3)cc2)cc1` (stereo unspecified), the cell number change is -1.48%. Moreover, the concentration at half-maximal activity (AC50) under setting [1] was 3.26 µM [falling, single point].

Regarding `CO/N=C/c1c(-c2ccc(Cl)cc2)nc2cc(C)ccn12`, the concentration at half-maximal activity (AC50) under setting [1] was 0.731 µM [rising, full curve, poor fit].

Consider `Cc1cc(-c2ccccc2)nc(N(C)NC(=O)C(C)(C)C)c1S(C)(=O)=O`, for which the cell number change came out at 45.9%. Under setting [2], the AC50 was 29.1 µM [rising, single point].

Regarding `Cc1cccc(C(=O)Nc2ccc(O)cc2C(=O)O)c1`, the cell number change is 31.1%. Under setting [2], the AC50 was 31.6 µM [rising, single point]. Moreover, under setting [1], the half-maximal activity concentration (AC50) is 31.6 µM [rising, single point].

For the compound `O=C(CSc1nnc(-c2ccc(S(=O)(=O)N3CCCC3)cc2)o1)NCc1ccccc1`, the cell number change was -2.24%.

In the case of `CC1CCN(S(=O)(=O)c2ccc(NC(=O)c3cccs3)cc2)CC1`, the cell number change was -19.4%.

Consider `Cn1c(CCN2CCCCC2)nc2cc(NC(=O)C3CCCCC3)ccc21`, for which the cell number change was -6.53%. Moreover, the AC50 under setting [1] was 1.84 µM [falling, full curve].

Regarding `COC(=O)c1ccccc1NC(=O)c1ccc(COc2cccc3ccccc23)o1`, the AC50 under setting [1] is 23.1 µM [rising, single point].

Turning to `Cc1ccc(OCC(=O)NCCCNC(=O)c2cccnc2)cc1C`, the cell number change turned out to be 1.67%.

With `C=COCCNC(=S)N1CCOCCOCCN(C(=S)NCCOC=C)CCOCCOCC1`, the cell number change is -23.3%. Also, the AC50 under setting [1] was 0.103 µM [falling, full curve, poor fit].

Take `COc1cc(/C=C(\C#N)c2nc3ccccc3[nH]2)ccc1Oc1ccc([N+](=O)[O-])cn1`: the cell number change was found to be 11%. Under setting [2], the AC50 is 0.146 µM [rising, full curve, poor fit].

Take `CS(=O)(=O)c1ccc(S(=O)CC(=O)Oc2ccc(Cl)cc2)c([N+](=O)[O-])c1` (stereo unspecified): the cell number change was -72.2%. The concentration at half-maximal activity (AC50) under setting [2] was 6.51 µM [falling, partial curve]. Also, the concentration at half-maximal activity (AC50) under setting [1] is 6.51 µM [falling, full curve].

Turning to `Cc1ccc2cn[nH]c2c1N`, the half-maximal activity concentration (AC50) under setting [2] is 0.731 µM [rising, single point].

Regarding `CN(CC(O)CN)CC(O)CN1CCCCC1` (stereo unspecified), the AC50 is 5.17 µM [falling, single point] under setting [2] and 6.51 µM [falling, partial curve, poor fit] under setting [1].

On to `CCN(CC)c1ccc(/C=N/NC(=O)c2cc(C)nc3ccccc23)cc1`, for which the cell number change is -7.15%. Under setting [1], the AC50 is 0.517 µM [falling, single point].

Take `Clc1cccc(CSc2ccc(-c3cccnc3)nn2)c1`: the cell number change was 1.71%. Further, the AC50 under setting [1] is 3.66 µM [rising, single point].

Take `COc1ccc(S(=O)(=O)N2CCC(C(=O)N(C)Cc3ccc(C)o3)CC2)cc1OC`: the cell number change turned out to be 6.01%. Besides, under setting [1], the concentration at half-maximal activity (AC50) was 0.013 µM [rising, full curve, poor fit].

In the case of `Cc1ccccc1N/C(=C(/C(Cl)=C(Cl)Cl)[N+](=O)[O-])n1nnc2ccccc21`, the cell number change is 8.8%.

Take `c1ccc2c(c1)NC1(CCCCC1)n1c-2nc2ccccc21`: the cell number change is -19.2%. Also, under setting [1], the AC50 was 0.00461 µM [rising, full curve, poor fit].

As for `O=C1COc2ccc(C(=O)COC(=O)c3ncc(Cl)c(Cl)c3Cl)cc2N1`, the cell number change was -4.53%. Further, under setting [2], the half-maximal activity concentration (AC50) is 0.82 µM [falling, full curve, poor fit].

In the case of `CC[C@@]12C(=O)N(c3cccc(Cl)c3)C(=O)N1[C@H](c1ccc(Br)cc1)[C@@H]1C(=O)N(C(C)(C)C)C(=O)[C@@H]12`, the cell number change was -30.4%. For the same compound, the half-maximal activity concentration (AC50) under setting [2] is 29.1 µM [falling, single point].

In the case of `COc1ccc(S(=O)(=O)N2CCN(C(=O)CN3C(=O)NC(C)(C)C3=O)CC2)cc1`, the cell number change was determined as 0.825%. In addition, the half-maximal activity concentration (AC50) under setting [1] is 0.731 µM [rising, single point].

As for `C#Cc1ccc([C@@H]2C=C(C(=O)NC3CC3)O[C@H](OCC)[C@H]2CCCO)cc1`, the cell number change came to 20.4%. In addition, the AC50 under setting [1] is 0.461 µM [rising, full curve, poor fit].

In the case of `Nc1c(C(=O)O)sc2nc(-c3ccc(F)cc3)cc(-c3ccccc3)c12`, the half-maximal activity concentration (AC50) reads like this: under setting [2], 0.082 µM [rising, full curve]; under setting [1], 0.731 µM [rising, partial curve, poor fit].

As for `Cc1ccc(S(=O)(=O)Nc2c(C)nc3nc(C)[nH]n3c2=O)cc1`, the cell number change was determined as 67.5%. For the same compound, the AC50 under setting [2] was 29.1 µM [rising, single point]. In addition, the half-maximal activity concentration (AC50) under setting [1] was 29.1 µM [rising, single point].

Take `O=C(CC1CCS(=O)(=O)C1)NC1CCCCC1` (stereo unspecified): the cell number change is -17%. The AC50 under setting [1] was 0.231 µM [falling, full curve, poor fit].

For `CCCCn1c(=NC(=O)c2ccc3c(c2)OCO3)c(C#N)cc2c(=O)n3cccc(C)c3nc21`, the cell number change turned out to be 24.5%. In addition, the concentration at half-maximal activity (AC50) under setting [2] is 0.0206 µM [rising, full curve, poor fit]. The AC50 under setting [1] was 0.058 µM [rising, full curve, poor fit].

With `CN(C(=O)CC1C(=O)NCCN1Cc1c(F)cccc1Cl)C1CCOCC1` (stereo unspecified), the AC50 under setting [1] was 6.51 µM [falling, single point].

As for `Clc1ccc(-c2nnnn2-c2ccc(Cl)cc2)cc1`, the cell number change was determined as 20.3%.

On to `Cc1cccc(Cl)c1NC(=O)N1CCN(c2ccnc3cc(Cl)ccc23)CC1`, for which the cell number change was -36.7%.

For `CCc1ccc2oc(=O)cc(CN3CCN(c4ccc(F)cc4)CC3)c2c1`, the cell number change is -98.3%. Under setting [2], the half-maximal activity concentration (AC50) was 18.4 µM [falling, partial curve, poor fit]. The AC50 under setting [1] was 1.84 µM [falling, full curve, poor fit].

For the compound `CCN(CC)S(=O)(=O)c1ccc2[nH]cc(C(=O)NCCc3ccc(OC)c(OC)c3)c(=O)c2c1`, the cell number change came out at 74.5%. Besides, under setting [2], the AC50 is 2.59 µM [rising, full curve]. In addition, under setting [1], the half-maximal activity concentration (AC50) was 2.59 µM [rising, full curve].

For `COc1cc(OC)c(C2C3=C(CCCC3=O)Nc3nc4ccccc4n32)cc1OC` (stereo unspecified), the cell number change was -18.3%.
